Assay results reported in publication PMC8380814.
No constants are given. Whether binding was seen depends on the method and setting. Binding seen in cells or lysates may run through a third protein. These calls come from enrichment with a bait or labelling near it, and not all partners need be listed.

The chains behind the UniProt entries cited, without tags or fusion partners.
UniProt Q9R1C7: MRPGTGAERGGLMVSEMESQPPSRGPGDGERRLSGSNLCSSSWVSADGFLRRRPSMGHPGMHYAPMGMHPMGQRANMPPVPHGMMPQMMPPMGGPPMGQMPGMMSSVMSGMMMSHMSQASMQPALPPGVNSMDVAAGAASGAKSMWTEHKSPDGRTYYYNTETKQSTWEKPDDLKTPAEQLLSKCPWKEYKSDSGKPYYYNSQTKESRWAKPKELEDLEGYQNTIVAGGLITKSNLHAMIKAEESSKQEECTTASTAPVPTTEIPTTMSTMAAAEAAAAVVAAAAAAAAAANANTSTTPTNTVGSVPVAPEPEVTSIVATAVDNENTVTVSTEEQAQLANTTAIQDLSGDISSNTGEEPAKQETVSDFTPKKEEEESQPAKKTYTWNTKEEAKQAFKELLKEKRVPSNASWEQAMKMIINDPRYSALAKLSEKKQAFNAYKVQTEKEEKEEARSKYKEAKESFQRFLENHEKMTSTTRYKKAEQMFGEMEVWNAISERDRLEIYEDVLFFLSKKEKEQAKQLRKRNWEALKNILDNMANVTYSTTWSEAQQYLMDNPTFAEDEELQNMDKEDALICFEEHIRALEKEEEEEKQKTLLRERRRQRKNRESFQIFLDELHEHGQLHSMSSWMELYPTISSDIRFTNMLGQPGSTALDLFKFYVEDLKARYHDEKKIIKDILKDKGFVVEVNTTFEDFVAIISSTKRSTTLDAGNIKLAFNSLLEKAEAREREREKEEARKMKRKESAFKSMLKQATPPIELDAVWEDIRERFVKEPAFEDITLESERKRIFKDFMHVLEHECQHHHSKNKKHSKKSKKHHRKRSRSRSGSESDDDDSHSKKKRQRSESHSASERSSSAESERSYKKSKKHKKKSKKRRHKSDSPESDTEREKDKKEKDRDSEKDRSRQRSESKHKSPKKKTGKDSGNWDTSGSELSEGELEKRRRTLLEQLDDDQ
UniProt Q99KP6: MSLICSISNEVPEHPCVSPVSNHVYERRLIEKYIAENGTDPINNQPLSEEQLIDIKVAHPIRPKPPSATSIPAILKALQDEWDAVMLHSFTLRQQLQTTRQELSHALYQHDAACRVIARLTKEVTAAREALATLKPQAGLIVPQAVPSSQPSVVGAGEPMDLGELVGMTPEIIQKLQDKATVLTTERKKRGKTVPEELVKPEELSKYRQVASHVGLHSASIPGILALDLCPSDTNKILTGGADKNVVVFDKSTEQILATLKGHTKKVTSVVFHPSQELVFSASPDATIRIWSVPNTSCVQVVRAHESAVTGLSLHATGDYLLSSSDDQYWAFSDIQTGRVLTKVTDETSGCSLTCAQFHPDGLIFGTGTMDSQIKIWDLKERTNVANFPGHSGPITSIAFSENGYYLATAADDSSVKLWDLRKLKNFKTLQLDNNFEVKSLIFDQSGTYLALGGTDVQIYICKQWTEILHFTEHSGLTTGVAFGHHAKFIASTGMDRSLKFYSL
UniProt O35286: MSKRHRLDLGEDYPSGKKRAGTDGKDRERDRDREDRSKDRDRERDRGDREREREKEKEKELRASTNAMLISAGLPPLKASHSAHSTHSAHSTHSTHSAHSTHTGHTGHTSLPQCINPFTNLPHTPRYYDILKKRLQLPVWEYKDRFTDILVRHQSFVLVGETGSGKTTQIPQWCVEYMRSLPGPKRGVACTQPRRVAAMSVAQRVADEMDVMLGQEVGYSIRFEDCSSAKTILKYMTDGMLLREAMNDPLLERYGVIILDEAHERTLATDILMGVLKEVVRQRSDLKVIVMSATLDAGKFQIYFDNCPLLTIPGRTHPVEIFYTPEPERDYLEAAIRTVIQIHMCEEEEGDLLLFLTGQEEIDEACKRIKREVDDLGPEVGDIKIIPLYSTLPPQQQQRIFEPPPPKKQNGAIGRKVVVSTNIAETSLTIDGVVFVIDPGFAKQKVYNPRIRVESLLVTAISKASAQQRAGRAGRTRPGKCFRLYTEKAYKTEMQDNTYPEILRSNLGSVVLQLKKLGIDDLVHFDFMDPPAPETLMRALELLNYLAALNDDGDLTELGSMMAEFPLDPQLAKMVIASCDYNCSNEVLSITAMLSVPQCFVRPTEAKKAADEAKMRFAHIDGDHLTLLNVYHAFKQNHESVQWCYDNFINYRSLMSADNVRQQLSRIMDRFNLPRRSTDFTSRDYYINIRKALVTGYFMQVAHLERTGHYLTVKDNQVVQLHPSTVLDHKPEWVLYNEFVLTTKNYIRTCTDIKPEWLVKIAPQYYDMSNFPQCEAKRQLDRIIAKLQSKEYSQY

T1: SYMPK (mouse (endogenous in spermatogenic cells of P16 testes)) (UniProt Q80X82)
T1 sequence: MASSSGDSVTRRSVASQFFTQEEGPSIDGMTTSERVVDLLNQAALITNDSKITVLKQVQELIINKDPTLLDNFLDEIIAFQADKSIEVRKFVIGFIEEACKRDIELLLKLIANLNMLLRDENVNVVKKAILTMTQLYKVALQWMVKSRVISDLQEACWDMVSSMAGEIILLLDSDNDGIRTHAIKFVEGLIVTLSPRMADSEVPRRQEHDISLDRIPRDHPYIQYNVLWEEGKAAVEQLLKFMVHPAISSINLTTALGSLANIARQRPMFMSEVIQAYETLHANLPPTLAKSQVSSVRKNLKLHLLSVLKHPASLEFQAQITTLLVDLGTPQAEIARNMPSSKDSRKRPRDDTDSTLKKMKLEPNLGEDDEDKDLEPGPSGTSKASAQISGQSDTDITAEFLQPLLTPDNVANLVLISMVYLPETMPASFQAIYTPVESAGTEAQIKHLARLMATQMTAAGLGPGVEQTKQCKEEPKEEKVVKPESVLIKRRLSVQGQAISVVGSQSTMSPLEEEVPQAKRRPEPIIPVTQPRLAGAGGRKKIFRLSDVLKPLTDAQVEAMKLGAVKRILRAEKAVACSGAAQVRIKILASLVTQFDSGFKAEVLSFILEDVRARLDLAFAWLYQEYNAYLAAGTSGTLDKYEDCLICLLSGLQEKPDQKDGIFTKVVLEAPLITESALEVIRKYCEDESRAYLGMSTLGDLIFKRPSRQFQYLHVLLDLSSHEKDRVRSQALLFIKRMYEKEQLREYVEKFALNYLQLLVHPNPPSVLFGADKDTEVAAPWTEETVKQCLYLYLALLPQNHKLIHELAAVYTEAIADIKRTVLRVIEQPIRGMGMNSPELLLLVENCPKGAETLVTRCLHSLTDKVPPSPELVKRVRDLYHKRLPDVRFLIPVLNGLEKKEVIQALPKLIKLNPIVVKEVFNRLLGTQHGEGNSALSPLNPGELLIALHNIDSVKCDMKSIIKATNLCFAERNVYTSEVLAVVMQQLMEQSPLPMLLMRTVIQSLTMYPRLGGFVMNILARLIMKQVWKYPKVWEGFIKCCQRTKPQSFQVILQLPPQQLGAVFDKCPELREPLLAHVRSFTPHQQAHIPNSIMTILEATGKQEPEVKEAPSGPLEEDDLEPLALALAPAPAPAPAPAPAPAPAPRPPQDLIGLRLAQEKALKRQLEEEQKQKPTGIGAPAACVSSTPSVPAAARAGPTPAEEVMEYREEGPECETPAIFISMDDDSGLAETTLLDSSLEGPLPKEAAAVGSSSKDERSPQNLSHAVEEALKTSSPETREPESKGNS

B1: WTAP (pre-mRNA-splicing regulator WTAP) (protein, UniProt Q9ER69 1-396)
chain: MTNEEPLPKKVRLSETDFKVMARDELILRWKQYEAYVQALEGKYTDLNSNDVTGLRESEEKLKQQQQESARRENILVMRLATKEQEMQECTTQIQYLKQVQQPSVAQLRSTMVDPAINLFFLKMKGELEQTKDKLEQAQNELSAWKFTPDSQTGKKLMAKCRMLIQENQELGRQLSQGRIAQLEAELALQKKYSEELKSSQDELNDFIIQLDEEVEGMQSTILVLQQQLKETRQQLAQYQQQQSQASAPSTSRTTSSEPVDQAEVTSKDCSRLANGPSNGSSSRQRTSGSGFHREGSTPEDDFPSSSGNGNKASNSSEERTGRGGSSYINPLSAGYESVDSPTGSENSLTHHSNDTDSSHDPQEEKAVSGKGNRTVGSRHVQNGLDSSVNVQGAVL
B2: CWC22 (pre-mRNA-splicing factor CWC22 homolog) (protein, UniProt Q8C5N3 1-908)
chain: MKSSVAHMKSSGHNRRETHSSYRRSSSPEDRYTEQERSPRDRGYSDYSRSDYERSRRGYSYDDSMESRSRDREKRRERERDADHRKRSRKSPSPDRSPARGGGQSSPQEEPTWKKKKDELDPLLTRTGGAYIPPAKLRMMQEQITDKSSLAYQRMSWEALKKSINGLINKVNISNISIIIQELLQENIVRGRGLLSRSVLQAQSASPIFTHVYAALVAIINSKFPQIGELILKRLILNFRKGYRRNDKQLCLTASKFVAHLINQNVAHEVLCLEMLTLLLERPTDDSVEVAIGFLKECGLKLTQVSPRGINAIFERLRNILHESEIDKRVQYMIEVMFAVRKDGFKDHPVILEGLDLVEEDDQFTHMLPLEDDYNPEDVLNVFKMDPNFMENEEKYKAIKKEILDEGDSDSNTDQGAGSSEDEEEEDEEEEGEDEEGGQKVTIHDKTEINLVSFRRTIYLAIQSSLDFEECAHKLLKMEFAESQTKELCNMILDCCAQQRTYEKFFGLLAGRFCMLKKEYMESFESIFKEQYDTIHRLETNKLRNVAKMFAHLLYTDSLPWSVLECIKLSEETTTSSSRIFVKIFFQELCEYMGLPKLNARLKDETLQPFFEGLLPRDNPRNTRFAINFFTSIGLGGLTDELREHLKNTPKVIVAQKPEAEQKKPALTSSSSESSSASDSSDSESDSSESSSESSSDASDSSSSSSTQSSTSGITAHSAKGTRKKRQGKARGEEVDKLARGHQALERRREGGREDQRHQEGRTERARSERRRAQNSRDADWRDPLAKHIDDRSHENSHSRVGNGREQGSHREPEDRHGEPKKRRERRDSFSENEKQRSRNQDSDNVRRKDRSKSRERSRRHSGHKGDDARCQNSAERRWEKPGRRPEQSRESKRSQDRRREKSPTTQK

The molecules below were run against T1, SYMPK (mouse (endogenous in spermatogenic cells of P16 testes)) (assay: affinity purification with mass spectrometry; anti-SYMPK antibody and protein A agarose beads on lysates of spermatogenic cells of P16 testes from wt and Sympk cKO(Stra8-Cre) mice; 50 mM Tris pH 7.5, 150 mM NaCl, 1% NP-40, 0.5% sodium deoxycholate, 1 mM DTT; lysates treated with RNase A and DNase; 4°C; HPLC and high-resolution mass …).

binding, binds:
PRPF40a (from UniProt Q9R1C7 1-953)
PRPF19 (from UniProt Q99KP6 1-504)
DHX15 (pre-mRNA-splicing factor ATP-dependent RNA DEAH-box helicase 15) (from UniProt O35286 1-795)
B1
B2
